Reference: the supplement of paper PMC10849652
The list shows a part of the results.

The chains behind the UniProt entries cited, without tags or fusion partners. Where a name states a change or a piece, a line headed by the entry shows the natural chain unless it says otherwise.
UniProt Q6UWE0: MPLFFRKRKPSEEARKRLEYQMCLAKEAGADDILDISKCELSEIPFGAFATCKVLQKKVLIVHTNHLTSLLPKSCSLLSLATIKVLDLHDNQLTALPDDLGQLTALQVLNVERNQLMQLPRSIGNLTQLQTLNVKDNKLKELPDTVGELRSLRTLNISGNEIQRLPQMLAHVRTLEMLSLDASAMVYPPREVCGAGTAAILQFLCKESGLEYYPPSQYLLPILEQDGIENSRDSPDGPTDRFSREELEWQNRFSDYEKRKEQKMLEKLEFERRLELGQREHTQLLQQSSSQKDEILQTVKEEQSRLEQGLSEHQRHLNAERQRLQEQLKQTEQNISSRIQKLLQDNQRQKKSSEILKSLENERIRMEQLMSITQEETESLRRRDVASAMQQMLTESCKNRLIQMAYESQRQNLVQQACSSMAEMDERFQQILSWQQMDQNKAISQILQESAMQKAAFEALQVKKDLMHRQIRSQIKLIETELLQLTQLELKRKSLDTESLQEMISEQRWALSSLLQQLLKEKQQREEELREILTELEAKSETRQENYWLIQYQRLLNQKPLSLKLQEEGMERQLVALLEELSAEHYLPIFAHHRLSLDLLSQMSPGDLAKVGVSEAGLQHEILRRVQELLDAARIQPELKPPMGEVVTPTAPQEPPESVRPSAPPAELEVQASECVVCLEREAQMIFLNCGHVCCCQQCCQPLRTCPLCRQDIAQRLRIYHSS
UniProt P33908: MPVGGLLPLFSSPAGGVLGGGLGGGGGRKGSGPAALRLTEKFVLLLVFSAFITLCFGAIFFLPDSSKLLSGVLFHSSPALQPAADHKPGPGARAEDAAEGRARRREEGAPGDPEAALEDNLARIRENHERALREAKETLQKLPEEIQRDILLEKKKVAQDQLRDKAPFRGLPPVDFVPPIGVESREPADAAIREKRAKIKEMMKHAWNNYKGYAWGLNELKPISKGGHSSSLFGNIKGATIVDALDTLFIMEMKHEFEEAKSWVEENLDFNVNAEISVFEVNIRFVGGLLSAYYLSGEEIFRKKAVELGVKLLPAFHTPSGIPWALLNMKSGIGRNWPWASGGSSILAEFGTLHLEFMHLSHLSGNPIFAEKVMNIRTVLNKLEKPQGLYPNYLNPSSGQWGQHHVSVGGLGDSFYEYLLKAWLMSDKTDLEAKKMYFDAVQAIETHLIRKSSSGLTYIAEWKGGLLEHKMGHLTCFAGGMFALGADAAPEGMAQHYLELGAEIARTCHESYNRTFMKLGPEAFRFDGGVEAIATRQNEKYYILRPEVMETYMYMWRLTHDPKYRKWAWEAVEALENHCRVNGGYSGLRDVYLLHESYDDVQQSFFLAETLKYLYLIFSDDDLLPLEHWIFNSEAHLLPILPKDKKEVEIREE
UniProt Q8WXG6, whole entry, looked up: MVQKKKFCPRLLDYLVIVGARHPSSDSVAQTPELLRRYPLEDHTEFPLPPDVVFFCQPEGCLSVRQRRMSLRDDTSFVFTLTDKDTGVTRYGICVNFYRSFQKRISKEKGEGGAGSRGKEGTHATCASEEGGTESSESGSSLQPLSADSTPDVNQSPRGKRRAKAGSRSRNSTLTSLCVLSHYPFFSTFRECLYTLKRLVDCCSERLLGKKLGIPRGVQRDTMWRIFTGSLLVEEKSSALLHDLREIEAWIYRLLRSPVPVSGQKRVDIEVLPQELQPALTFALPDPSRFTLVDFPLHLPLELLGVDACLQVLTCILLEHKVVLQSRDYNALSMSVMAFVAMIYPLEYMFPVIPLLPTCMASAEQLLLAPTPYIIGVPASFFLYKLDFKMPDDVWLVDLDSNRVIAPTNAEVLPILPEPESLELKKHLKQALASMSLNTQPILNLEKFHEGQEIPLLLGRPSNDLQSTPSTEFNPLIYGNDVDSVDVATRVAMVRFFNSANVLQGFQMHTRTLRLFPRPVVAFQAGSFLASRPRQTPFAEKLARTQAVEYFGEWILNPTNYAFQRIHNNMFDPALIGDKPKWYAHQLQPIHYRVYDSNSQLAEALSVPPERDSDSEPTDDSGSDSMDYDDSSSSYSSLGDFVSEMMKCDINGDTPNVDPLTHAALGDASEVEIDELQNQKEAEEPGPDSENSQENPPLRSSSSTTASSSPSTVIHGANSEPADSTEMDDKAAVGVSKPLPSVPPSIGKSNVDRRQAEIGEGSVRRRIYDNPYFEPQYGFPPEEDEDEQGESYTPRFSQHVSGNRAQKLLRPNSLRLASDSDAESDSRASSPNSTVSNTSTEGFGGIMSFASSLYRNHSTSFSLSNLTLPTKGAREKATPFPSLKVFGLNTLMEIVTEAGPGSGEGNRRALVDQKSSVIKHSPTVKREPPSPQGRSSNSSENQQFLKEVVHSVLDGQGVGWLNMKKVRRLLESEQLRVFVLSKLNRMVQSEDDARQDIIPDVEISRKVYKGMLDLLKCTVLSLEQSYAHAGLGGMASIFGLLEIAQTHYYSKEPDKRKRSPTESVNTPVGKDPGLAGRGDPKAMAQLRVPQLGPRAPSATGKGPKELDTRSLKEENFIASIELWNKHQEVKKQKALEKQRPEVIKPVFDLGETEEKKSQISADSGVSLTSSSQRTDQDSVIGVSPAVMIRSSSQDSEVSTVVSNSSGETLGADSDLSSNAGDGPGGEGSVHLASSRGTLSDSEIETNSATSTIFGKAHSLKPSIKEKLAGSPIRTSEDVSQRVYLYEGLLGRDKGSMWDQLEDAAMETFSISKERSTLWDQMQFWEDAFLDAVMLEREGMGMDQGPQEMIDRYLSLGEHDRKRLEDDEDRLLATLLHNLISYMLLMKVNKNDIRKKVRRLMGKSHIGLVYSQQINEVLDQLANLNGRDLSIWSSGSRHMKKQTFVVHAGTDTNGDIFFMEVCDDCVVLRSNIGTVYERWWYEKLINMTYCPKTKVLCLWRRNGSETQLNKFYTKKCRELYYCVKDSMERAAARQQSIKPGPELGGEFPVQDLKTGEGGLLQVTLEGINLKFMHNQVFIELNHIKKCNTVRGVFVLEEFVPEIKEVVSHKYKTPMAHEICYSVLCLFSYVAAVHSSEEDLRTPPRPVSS
UniProt Q9NQ29: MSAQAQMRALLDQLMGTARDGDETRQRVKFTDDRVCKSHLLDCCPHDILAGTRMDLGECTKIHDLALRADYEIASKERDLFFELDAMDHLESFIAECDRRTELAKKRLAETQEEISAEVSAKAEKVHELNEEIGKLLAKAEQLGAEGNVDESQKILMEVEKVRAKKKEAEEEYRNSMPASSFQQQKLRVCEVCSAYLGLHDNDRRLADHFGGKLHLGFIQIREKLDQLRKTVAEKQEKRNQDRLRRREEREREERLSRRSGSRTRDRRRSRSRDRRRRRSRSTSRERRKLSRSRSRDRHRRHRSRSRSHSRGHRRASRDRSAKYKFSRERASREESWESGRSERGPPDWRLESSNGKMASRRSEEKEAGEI
UniProt Q9H0U3: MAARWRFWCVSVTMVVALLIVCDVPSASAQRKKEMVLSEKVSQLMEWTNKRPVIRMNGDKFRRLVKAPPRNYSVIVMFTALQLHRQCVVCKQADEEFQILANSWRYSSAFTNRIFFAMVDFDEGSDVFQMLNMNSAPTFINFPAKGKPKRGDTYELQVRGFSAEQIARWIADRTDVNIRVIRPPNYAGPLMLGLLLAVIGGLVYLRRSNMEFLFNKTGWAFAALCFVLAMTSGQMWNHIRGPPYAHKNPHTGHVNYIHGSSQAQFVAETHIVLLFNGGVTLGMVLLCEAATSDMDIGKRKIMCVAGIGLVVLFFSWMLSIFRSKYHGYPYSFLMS
UniProt Q6NSJ5: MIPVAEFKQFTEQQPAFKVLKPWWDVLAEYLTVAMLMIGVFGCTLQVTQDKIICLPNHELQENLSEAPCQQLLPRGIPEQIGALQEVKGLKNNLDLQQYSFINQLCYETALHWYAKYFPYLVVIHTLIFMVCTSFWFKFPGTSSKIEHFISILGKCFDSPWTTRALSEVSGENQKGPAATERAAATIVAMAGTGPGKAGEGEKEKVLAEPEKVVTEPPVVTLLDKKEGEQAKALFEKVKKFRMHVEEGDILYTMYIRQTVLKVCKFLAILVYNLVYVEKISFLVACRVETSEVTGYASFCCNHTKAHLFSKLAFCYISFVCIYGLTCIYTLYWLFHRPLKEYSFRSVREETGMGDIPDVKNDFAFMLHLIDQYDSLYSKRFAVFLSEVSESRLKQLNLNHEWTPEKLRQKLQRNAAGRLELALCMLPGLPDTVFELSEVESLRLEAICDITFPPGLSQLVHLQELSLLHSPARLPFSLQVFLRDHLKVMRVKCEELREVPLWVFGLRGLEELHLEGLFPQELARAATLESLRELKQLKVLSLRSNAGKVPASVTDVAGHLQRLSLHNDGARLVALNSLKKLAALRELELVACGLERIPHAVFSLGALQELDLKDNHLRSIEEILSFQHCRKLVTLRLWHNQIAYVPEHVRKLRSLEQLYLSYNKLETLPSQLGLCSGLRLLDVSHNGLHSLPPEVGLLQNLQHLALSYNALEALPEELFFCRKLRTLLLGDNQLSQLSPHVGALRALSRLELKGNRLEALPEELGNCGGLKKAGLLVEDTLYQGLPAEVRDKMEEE
UniProt O14733: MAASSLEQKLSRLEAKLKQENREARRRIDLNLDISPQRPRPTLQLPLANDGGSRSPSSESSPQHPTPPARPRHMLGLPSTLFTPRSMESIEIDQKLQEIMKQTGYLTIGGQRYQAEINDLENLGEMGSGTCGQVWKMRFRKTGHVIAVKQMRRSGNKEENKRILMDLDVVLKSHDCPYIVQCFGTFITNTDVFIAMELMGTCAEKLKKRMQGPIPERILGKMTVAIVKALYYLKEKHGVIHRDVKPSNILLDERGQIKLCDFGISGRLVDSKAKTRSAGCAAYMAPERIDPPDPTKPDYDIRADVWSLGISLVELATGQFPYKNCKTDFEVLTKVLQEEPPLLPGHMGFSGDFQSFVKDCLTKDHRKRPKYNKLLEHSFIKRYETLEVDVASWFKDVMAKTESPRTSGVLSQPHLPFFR
UniProt Q9Y6R4: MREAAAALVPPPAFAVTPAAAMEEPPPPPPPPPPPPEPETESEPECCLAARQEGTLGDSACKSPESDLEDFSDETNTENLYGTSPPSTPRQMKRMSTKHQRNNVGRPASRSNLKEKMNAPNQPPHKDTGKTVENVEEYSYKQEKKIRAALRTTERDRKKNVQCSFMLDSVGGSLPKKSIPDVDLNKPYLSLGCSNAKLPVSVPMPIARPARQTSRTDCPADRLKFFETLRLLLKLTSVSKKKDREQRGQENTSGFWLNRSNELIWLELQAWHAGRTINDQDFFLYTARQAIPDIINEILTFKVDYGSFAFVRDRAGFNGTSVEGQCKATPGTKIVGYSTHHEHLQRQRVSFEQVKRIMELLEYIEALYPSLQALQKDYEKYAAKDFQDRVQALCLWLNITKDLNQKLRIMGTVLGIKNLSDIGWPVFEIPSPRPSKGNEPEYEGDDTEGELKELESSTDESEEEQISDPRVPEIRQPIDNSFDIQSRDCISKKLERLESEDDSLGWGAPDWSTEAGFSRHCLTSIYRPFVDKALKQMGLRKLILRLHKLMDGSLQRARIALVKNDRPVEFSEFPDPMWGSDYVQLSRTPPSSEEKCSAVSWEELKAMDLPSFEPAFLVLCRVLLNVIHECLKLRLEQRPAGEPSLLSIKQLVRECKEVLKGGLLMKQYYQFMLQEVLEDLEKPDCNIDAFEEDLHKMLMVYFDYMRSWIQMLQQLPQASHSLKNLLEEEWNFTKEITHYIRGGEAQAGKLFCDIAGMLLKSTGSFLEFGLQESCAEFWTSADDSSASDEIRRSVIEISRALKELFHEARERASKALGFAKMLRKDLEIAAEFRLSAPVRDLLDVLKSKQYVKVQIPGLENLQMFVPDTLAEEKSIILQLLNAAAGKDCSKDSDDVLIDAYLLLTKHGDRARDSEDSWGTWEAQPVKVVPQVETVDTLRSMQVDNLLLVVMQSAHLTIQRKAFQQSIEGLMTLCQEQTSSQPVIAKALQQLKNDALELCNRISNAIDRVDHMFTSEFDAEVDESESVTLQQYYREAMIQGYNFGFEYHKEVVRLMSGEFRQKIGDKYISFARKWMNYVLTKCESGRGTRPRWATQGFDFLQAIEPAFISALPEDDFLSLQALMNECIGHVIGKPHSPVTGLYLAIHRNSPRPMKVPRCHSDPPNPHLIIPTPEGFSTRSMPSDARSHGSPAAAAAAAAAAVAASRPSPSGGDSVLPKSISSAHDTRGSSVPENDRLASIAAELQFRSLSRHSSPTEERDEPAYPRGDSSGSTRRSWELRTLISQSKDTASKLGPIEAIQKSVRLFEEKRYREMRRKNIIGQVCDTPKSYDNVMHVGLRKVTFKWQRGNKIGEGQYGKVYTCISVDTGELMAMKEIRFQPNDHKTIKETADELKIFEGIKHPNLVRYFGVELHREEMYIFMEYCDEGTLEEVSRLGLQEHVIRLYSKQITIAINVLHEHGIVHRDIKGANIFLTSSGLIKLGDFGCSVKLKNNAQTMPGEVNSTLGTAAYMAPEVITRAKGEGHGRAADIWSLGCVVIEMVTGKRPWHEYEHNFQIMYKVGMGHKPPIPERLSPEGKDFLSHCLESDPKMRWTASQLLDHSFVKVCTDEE

Key:
Experiment in all cases: log2 fold change, soluble protein after heating vs DMSO (PISA); higher = thermal stabilisation; K562 cells, 10 uM, 30 min; active = over 0.2 and 3.5 SD of the protein, either way, in both replicates (recomputed)
saracatinib = compound: CN1CCN(CCOc2cc(OC3CCOCC3)c3c(Nc4c(Cl)ccc5c4OCO5)ncnc3c2)CC1 [saracatinib]
How it was run: (§1)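 Soluble protein was defined as the supernatant after 21,000xg for 90 min. It came from K562 cells at 2×10^6 cells/mL given 10 μM compound for 30 min, heated in aliquots for 3 min across 48°C-58°C, pooled, and extracted in PBS with 0.5% NP-40 at 4°C, and was quantified by TMTpro 16plex LC-MS/MS with equalised channel sums. Thermal stability against control samples, from duplicates, is reported as log2 fold change.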

sotrastaurin = compound: CN1CCN(c2nc(C3=C(c4c[nH]c5ccccc45)C(=O)NC3=O)c3ccccc3n2)CC1 [sotrastaurin]
How it was run: as §1

alvocidib = compound: CN1CC[C@H](c2c(O)cc(O)c3c(=O)cc(-c4ccccc4Cl)oc23)[C@H](O)C1 [alvocidib]
How it was run: as §1

Tubastatin A = compound: CN1CCc2c(c3ccccc3n2Cc2ccc(C(=O)NO)cc2)C1 [Tubastatin A]
How it was run: as §1

[1] = compound: CNC(=O)C1=CC=CC=C1NC2=NC(=NC=C2Cl)NC3=C(C=C(C=C3)N4CCOCC4)OC
How it was run: as §1

defactinib = compound: CNC(=O)c1ccc(Nc2ncc(C(F)(F)F)c(NCc3nccnc3N(C)S(C)(=O)=O)n2)cc1 [defactinib]
How it was run: as §1

rucaparib = compound: CNCc1ccc(-c2[nH]c3cc(F)cc4c3c2CCNC4=O)cc1 [rucaparib]
How it was run: as §1

[2] = compound: CNc1nc(-c2ccc3c(N)n[nH]c3c2)cc(N2C[C@@H](C(=O)NC3CCCCC3)CC[C@H]2C)n1
How it was run: as §1

encorafenib = compound: COC(=O)N[C@@H](C)CNc1nccc(-c2cn(C(C)C)nc2-c2cc(Cl)cc(NS(C)(=O)=O)c2F)n1 [encorafenib]
How it was run: as §1

[3] = compound: COC(=O)[C@H](CCSC)NC(=O)C1=C(C=C(C=C1)NC[C@H](CS)N)C2=CC=CC=C2
How it was run: as §1

[4] = compound: COC1=CC=C(C=C1)CN2C=CC3=C2C=C(C=C3)C(=O)NO
How it was run: as §1

filanesib = compound: CON(C)C(=O)N1N=C(c2cc(F)ccc2F)S[C@@]1(CCCN)c1ccccc1 [filanesib]
How it was run: as §1

zotarolimus = compound: CO[C@H]1C[C@@H]2CC[C@@H](C)[C@@](O)(O2)C(=O)C(=O)N2CCCC[C@H]2C(=O)O[C@H]([C@H](C)C[C@@H]2CC[C@H](n3cnnn3)[C@H](OC)C2)CC(=O)[C@H](C)/C=C(\C)[C@@H](O)[C@@H](OC)C(=O)[C@H](C)C[C@H](C)/C=C/C=C/C=C/1C [zotarolimus]
How it was run: as §1

idasanutlin = compound: COc1cc(C(=O)O)ccc1NC(=O)[C@@H]1N[C@@H](CC(C)(C)C)[C@](C#N)(c2ccc(Cl)cc2F)[C@H]1c1cccc(Cl)c1F [idasanutlin]
How it was run: as §1

alisertib = compound: COc1cc(Nc2ncc3c(n2)-c2ccc(Cl)cc2C(c2c(F)cccc2OC)=NC3)ccc1C(=O)O [alisertib]
How it was run: as §1

[5] = compound: COc1cc2nc(-c3cc(F)ccc3O)nc(N[C@@H]3CNC[C@H]3C(C)(C)O)c2cc1OC
How it was run: as §1

gefitinib = compound: COc1cc2ncnc(Nc3ccc(F)c(Cl)c3)c2cc1OCCCN1CCOCC1 [gefitinib]
How it was run: as §1

[6] = compound: COc1cccc2cc(-c3nc([C@H]4CC[C@H](C(=O)O)CC4)n4ncnc(N)c34)[nH]c12
How it was run: as §1

lapatinib = compound: CS(=O)(=O)CCNCc1ccc(-c2ccc3ncnc(Nc4ccc(OCc5cccc(F)c5)c(Cl)c4)c3c2)o1 [lapatinib]
How it was run: as §1

pictilisib = compound: CS(=O)(=O)N1CCN(Cc2cc3nc(-c4cccc5[nH]ncc45)nc(N4CCOCC4)c3s2)CC1 [pictilisib]
How it was run: as §1

Measured: log2 fold change

LRSAM1 (UniProt Q6UWE0)
inactive: saracatinib -0.013 | sotrastaurin -0.012 | alvocidib -0.087 | Tubastatin A 0.024 | [1] 0.032 | defactinib -0.072 | rucaparib -0.001 | [2] -0.05 | encorafenib 0.022 | [3] -0.038 | [4] 0.024 | filanesib -0.058 | zotarolimus 0.004 | idasanutlin -0.007 | alisertib -0.018 | [5] 0.002 | gefitinib 0.009 | [6] -0.011 | lapatinib 0.01 | pictilisib 0.045

MAN1A1 (UniProt P33908)
inactive: saracatinib 0.008 | sotrastaurin 0.022 | alvocidib 0.039 | Tubastatin A -0.012 | [1] -0.005 | defactinib 0.002 | rucaparib -0.011 | [2] -0.093 | encorafenib -0.015 | [3] -0.004 | [4] 0.015 | filanesib 0.012 | zotarolimus -0.015 | idasanutlin -0.051 | alisertib -0.146 | [5] -0.032 | gefitinib 0.071 | [6] 0.062 | lapatinib 0.011 | pictilisib 0.016

MADD isoform 2 (UniProt Q8WXG6)
inactive: saracatinib -0.09 | sotrastaurin -0.178 | alvocidib 0.019 | Tubastatin A 0.068 | [1] -0.035 | rucaparib 0.274 | [2] 0.071 | encorafenib 0.078 | [4] 0.069 | filanesib 0.043 | zotarolimus 0.156 | idasanutlin 0.04 | alisertib -0.06 | [5] 0.123 | gefitinib 0.019 | [6] -0.043 | lapatinib -0.037

LUC7L (UniProt Q9NQ29)
inactive: saracatinib -0.005 | sotrastaurin 0.056 | Tubastatin A 0.006 | [1] -0.119 | defactinib 0.022 | rucaparib 0.076 | [2] -0.049 | encorafenib 0.039 | [3] 0.022 | [4] -0.094 | filanesib 0.178 | zotarolimus -0.013 | idasanutlin 0.052 | alisertib -0.07 | [5] 0.024 | gefitinib -0.104 | [6] 0.017 | lapatinib 0.007 | pictilisib 0.092

MAGT1 (UniProt Q9H0U3)
inactive: saracatinib -0.007 | sotrastaurin -0.009 | alvocidib 0.029 | Tubastatin A -0.001 | [1] 0.051 | defactinib 0.068 | rucaparib 0.007 | [2] -0.022 | encorafenib 0.019 | [3] -0.002 | [4] -0.087 | filanesib 0.028 | zotarolimus 0.011 | idasanutlin 0.007 | alisertib -0.026 | [5] -0.003 | gefitinib 0.044 | [6] -0.007 | lapatinib 0.087 | pictilisib -0.034

LRRC8E (UniProt Q6NSJ5)
inactive: saracatinib -0.117 | sotrastaurin 0.328 | alvocidib 0 | Tubastatin A -0.023 | [1] 0.075 | defactinib 0.066 | [2] -0.128 | [3] 0.019 | [4] -0.028 | filanesib 0.221 | zotarolimus -0.058 | alisertib -0.065 | [5] -0.066 | [6] -0.01 | lapatinib 0.052 | pictilisib 0.117

MAP2K7 isoform 4 (UniProt O14733)
inactive: saracatinib 0.063 | sotrastaurin 0.026 | Tubastatin A -0.002 | [1] -0.04 | defactinib -0.012 | rucaparib 0.036 | [2] -0.001 | encorafenib 0.013 | [3] -0.01 | [4] -0.018 | filanesib -0.029 | zotarolimus -0.042 | idasanutlin -0.003 | alisertib -0.029 | [5] 0.019 | gefitinib -0.027 | [6] 0.048 | lapatinib -0.016 | pictilisib 0.137

MAP3K4 isoform 2 (UniProt Q9Y6R4)
inactive: saracatinib 0.077 | sotrastaurin 0.034 | Tubastatin A -0.038 | [1] 0.153 | defactinib -0.008 | rucaparib 0.006 | [2] -0.002 | encorafenib -0.023 | [3] 0.029 | [4] 0.004 | filanesib -0.037 | zotarolimus 0.003 | idasanutlin -0.023 | alisertib -0.043 | [5] 0.03 | gefitinib 0.034 | [6] 0.086 | lapatinib 0.024 | pictilisib 0.11
